Test [1] concerns the target T1, RNF149 as used in the co-immunoprecipitation experiments (construct not stated) (human) (UniProt Q8NC42).
T1 sequence: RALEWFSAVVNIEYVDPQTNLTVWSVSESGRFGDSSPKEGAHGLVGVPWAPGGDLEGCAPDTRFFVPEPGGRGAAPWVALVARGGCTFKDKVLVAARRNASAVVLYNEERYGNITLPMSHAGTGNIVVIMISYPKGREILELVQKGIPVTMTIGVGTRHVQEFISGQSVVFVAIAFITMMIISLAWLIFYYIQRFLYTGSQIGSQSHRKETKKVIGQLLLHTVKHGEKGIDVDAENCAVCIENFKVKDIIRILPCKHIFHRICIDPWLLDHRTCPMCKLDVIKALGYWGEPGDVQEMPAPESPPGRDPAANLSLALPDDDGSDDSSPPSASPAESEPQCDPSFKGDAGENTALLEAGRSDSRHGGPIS
In words: co-IP; not described; result told only in the discussion ('our Co-IP experiments').

The chains behind the UniProt entries cited, without tags or fusion partners.
UniProt P15056: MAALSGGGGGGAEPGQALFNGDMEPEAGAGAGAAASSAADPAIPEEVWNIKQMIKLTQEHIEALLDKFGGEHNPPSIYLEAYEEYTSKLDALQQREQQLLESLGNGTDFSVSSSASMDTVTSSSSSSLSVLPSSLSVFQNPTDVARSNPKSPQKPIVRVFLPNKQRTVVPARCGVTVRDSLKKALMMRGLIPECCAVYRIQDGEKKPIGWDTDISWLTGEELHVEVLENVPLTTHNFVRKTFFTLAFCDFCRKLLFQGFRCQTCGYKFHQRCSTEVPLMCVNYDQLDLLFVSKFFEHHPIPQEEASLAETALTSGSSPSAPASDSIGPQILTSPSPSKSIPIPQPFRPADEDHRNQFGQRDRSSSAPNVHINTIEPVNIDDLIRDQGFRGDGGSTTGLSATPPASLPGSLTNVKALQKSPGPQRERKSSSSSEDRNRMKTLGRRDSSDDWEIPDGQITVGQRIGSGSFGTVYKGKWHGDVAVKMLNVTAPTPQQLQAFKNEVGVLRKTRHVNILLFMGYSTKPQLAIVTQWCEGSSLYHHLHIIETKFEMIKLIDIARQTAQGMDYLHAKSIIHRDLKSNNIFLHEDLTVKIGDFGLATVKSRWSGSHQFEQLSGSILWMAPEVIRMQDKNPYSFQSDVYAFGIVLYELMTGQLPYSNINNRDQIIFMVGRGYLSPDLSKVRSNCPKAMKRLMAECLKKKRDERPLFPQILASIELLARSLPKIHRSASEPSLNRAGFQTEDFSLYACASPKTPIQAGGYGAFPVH
UniProt Q9H1X3: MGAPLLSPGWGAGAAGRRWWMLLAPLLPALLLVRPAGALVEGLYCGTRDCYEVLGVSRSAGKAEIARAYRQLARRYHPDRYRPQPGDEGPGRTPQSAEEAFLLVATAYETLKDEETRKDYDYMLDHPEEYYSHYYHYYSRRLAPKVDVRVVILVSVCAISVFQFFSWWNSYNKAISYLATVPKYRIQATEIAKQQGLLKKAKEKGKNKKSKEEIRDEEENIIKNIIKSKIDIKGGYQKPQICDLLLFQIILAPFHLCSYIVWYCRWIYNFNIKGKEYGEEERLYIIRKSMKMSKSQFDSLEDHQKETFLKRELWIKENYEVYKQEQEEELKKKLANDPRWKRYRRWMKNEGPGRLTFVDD

The target of test [2] is T1, RNF149 as used in the co-immunoprecipitation experiments (construct not stated) (human). In words: co-IP; cells transfected with indicated plasmids; NETN lysis buffer; IP and WB (Figure 7H).

These are yes or no findings as the source states them, for the method shown. Binding seen in cells or lysates may run through a third protein. Some results given as binding are weak or reduced against the parent protein; the word gives no strength.

For the substance B-RAF (from UniProt P15056 1-766), in test [1], the binding result was “no binding”.

Regarding “DNAJC25 as used in the co-immunoprecipitation of Figure 7H (from UniProt Q9H1X3 1-360)”, the binding result in test [2] is listed as “binds”.

These data come from paper PMC10648572.
